Experimental data reported in the supplement of paper PMC11006884.
Most of the targets with a hit are listed elsewhere, so they are rarer here than in the full data. The data scatter; read single values as rough. Only a part is listed here, and it is no random draw.

Sequences of proteins named here, by UniProt entry; tags and fusion partners are left off. A change or cut given only in a name is not applied to a line headed by its entry.
UniProt P53384: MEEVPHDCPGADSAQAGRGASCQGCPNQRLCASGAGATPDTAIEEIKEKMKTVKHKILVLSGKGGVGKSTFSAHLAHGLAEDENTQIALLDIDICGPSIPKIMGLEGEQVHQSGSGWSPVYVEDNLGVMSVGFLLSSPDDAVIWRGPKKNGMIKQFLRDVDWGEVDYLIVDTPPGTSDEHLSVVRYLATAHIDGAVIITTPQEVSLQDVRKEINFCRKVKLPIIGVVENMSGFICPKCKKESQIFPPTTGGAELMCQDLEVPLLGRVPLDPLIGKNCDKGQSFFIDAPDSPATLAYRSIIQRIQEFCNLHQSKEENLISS
UniProt P52701: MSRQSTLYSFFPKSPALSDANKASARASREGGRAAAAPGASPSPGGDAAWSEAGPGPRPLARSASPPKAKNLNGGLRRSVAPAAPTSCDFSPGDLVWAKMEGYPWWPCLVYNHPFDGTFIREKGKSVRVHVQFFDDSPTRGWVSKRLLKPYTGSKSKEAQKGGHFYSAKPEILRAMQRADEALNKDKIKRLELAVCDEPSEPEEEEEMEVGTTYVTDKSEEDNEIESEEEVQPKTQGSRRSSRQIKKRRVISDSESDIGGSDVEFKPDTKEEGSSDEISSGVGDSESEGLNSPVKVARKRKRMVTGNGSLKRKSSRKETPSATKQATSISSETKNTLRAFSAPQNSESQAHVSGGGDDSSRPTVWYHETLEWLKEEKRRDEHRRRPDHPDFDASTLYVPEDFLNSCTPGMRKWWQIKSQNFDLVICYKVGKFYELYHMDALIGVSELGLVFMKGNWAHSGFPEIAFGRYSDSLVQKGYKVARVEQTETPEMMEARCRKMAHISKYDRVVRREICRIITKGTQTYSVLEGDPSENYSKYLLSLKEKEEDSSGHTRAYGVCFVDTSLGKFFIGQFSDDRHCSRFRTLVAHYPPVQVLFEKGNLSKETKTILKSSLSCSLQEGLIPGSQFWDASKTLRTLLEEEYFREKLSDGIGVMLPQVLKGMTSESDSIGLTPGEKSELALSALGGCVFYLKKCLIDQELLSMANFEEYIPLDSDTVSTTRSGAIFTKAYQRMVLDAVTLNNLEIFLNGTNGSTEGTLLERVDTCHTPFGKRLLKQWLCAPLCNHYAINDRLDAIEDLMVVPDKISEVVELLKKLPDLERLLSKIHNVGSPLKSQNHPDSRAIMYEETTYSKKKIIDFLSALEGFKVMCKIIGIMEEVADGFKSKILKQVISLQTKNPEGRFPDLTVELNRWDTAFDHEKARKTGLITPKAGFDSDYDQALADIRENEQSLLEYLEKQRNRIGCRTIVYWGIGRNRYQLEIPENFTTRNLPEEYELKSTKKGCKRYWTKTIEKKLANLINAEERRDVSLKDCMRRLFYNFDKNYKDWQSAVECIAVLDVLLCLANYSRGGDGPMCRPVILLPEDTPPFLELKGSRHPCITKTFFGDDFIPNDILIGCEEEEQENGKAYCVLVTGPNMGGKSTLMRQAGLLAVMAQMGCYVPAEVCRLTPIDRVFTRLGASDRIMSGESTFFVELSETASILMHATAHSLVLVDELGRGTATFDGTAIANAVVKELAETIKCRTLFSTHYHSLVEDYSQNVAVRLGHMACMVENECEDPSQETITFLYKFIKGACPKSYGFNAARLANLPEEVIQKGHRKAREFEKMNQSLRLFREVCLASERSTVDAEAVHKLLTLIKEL
UniProt P52789: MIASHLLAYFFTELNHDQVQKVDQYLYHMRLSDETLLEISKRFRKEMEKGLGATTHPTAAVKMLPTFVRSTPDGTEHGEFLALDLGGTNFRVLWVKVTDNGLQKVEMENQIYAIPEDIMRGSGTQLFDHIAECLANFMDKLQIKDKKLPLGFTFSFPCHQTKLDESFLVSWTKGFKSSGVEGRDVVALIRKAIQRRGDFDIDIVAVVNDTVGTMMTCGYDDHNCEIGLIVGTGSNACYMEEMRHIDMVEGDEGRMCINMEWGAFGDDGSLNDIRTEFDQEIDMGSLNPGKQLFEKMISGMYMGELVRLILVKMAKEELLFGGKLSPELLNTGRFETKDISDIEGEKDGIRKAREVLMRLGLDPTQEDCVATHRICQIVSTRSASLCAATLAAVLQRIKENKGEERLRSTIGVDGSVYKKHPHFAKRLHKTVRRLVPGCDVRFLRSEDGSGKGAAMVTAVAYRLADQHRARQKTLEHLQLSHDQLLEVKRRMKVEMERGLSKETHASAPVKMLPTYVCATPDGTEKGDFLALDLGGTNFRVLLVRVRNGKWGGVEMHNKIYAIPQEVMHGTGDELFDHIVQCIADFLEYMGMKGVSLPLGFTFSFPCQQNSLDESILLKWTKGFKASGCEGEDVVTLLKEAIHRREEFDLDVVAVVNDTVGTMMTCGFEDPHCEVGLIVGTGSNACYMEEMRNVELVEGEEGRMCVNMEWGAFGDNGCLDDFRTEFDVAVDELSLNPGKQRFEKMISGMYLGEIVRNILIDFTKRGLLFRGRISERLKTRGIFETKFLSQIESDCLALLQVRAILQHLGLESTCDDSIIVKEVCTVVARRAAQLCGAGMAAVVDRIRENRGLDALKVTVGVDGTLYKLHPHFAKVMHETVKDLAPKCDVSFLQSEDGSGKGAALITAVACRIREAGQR
UniProt P55212: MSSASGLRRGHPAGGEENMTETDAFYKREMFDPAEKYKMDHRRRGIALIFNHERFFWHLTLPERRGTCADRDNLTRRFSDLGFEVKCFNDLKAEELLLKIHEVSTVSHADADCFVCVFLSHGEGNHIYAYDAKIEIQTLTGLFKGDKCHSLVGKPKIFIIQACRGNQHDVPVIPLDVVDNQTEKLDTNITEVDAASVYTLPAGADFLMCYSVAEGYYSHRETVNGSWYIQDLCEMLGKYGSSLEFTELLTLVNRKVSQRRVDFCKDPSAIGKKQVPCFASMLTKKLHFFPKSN
UniProt P51812, whole entry, looked up: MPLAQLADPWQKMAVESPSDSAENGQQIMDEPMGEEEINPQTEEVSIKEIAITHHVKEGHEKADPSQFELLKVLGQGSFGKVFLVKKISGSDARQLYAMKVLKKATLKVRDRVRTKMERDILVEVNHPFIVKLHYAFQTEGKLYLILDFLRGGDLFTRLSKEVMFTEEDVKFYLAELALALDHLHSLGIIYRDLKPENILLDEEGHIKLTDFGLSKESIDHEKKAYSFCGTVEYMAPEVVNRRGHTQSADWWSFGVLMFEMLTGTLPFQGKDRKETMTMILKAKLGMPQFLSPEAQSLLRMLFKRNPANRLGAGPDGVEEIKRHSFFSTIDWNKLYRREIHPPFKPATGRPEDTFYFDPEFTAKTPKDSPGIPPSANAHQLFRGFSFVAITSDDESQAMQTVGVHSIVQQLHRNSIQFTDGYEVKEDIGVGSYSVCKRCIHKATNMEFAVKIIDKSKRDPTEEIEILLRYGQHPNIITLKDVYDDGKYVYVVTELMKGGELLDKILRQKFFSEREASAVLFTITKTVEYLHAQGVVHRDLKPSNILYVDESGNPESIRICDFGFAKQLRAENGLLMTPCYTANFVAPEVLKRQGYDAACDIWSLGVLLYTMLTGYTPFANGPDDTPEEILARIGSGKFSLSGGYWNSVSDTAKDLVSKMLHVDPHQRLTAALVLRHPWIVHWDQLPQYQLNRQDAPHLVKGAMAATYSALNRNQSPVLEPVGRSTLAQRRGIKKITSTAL
UniProt P54098: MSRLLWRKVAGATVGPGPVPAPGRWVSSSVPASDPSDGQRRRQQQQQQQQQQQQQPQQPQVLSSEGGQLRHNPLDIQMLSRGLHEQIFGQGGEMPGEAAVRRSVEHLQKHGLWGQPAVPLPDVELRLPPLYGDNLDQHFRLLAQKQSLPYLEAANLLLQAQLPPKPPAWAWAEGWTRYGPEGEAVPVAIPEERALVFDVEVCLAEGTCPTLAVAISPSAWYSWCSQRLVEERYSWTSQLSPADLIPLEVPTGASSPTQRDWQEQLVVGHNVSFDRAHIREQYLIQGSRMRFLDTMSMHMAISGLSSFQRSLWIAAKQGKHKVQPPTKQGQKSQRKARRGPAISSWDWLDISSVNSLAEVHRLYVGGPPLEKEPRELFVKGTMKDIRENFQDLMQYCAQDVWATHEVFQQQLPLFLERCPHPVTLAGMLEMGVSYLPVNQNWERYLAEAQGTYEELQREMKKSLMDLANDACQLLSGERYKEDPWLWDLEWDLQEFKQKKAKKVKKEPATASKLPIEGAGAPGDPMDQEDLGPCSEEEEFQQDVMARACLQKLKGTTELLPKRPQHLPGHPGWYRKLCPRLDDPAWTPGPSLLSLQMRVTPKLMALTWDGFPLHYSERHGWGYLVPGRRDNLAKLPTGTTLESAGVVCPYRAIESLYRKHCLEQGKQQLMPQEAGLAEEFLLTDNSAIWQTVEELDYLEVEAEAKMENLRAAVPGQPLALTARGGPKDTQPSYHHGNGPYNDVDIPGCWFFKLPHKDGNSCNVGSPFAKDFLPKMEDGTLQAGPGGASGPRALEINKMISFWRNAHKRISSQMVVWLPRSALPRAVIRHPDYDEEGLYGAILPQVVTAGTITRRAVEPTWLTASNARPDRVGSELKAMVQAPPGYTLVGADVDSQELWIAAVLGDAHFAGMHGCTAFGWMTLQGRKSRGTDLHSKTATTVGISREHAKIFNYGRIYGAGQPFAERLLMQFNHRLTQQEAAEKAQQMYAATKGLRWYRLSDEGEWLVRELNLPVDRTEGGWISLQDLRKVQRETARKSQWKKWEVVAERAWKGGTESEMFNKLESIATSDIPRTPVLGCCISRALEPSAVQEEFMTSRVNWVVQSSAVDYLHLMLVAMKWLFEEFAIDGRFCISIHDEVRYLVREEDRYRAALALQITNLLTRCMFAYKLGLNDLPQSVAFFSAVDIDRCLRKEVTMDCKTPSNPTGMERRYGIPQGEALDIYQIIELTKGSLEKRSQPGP
UniProt P55084: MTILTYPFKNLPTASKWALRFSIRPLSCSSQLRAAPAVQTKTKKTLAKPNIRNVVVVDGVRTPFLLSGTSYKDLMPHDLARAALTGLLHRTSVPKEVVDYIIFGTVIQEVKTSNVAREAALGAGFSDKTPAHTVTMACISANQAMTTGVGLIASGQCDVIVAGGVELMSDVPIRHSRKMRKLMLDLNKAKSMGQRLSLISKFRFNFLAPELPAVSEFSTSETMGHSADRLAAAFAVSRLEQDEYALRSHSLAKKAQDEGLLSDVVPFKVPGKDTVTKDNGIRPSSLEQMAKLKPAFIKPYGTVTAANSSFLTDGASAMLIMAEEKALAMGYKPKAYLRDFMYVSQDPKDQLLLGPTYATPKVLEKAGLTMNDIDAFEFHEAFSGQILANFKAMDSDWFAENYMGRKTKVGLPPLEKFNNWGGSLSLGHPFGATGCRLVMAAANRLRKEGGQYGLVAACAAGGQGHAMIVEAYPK
UniProt P61077: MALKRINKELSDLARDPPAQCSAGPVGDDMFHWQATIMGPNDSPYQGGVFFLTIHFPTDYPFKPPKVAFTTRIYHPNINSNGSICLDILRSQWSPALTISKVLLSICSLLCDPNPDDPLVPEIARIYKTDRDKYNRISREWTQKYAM
UniProt P52594: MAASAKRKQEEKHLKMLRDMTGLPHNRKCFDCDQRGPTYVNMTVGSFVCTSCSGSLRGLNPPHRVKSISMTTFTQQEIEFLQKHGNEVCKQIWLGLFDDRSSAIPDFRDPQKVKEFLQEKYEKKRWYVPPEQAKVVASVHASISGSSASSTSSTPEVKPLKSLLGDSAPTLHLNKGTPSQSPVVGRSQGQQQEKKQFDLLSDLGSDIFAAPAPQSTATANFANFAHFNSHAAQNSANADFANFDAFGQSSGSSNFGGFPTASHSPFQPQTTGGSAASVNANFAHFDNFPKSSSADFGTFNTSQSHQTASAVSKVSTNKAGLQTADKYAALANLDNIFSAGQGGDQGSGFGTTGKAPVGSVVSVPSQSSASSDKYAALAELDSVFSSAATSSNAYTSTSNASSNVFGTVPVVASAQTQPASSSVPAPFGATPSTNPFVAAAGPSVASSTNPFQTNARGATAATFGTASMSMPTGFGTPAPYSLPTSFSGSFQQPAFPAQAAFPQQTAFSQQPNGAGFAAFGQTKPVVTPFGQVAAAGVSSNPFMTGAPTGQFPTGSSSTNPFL
UniProt P60174, whole entry, looked up: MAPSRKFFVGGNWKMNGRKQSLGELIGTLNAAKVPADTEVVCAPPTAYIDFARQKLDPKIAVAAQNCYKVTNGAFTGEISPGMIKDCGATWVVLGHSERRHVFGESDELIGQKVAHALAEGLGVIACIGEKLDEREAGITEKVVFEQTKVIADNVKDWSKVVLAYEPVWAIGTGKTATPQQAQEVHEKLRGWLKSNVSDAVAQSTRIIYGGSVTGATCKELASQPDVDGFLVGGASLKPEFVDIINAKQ
UniProt P61088: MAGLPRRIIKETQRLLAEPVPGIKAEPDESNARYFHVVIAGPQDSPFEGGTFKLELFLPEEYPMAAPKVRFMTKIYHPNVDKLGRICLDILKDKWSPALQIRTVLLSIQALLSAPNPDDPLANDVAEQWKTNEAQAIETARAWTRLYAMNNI

Compound: COC(=O)/C=C/c1ccccc1 [methyl cinnamate]
Test: log2 ratio of iodoacetamide-alkyne labeling of the cysteine site, DMSO over compound (competition); higher = stronger covalent engagement of the cysteine by the compound, active = 1 or more
Details: 500 µM; treatment time 1 h; system: HEK293T cell lysate
Outline: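 After 1 h at ambient temperature with vehicle or electrophile (500 µM), HEK293T lysate (2 mg/mL) was labelled for 1 h with iodoacetamide alkyne and clicked to sCIP-TMT reagents. Pooled samples were trypsin-digested overnight at 37 °C, streptavidin-enriched, acid-eluted and analysed by Orbitrap Eclipse LC-MS/MS with FAIMS, then quantified in FragPipe over three replicates with duplicate channels. A cysteine's log2 competition ratio is its mean control-channel over mean compound-channel reporter intensity. Cysteines quantified in only one replicate were not included.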

log2 ratio of iodoacetamide-alkyne labeling, inactive:
UniProt P62244_C72 0.318
UniProt P61224_C141 -0.000216
UniProt P55072_C415 0.0649
MARS C287 (UniProt P56192) 0.0135
HNRNPH2 C34 (UniProt P55795) 0.189
METAP1 C9 (UniProt P53582) 0.393
UniProt P60866_C36 0.102
NUBP1 C277 (UniProt P53384) 0.192
UniProt P60891_C265 -0.08
GEMIN4 C9 (UniProt P57678) -0.242
UniProt P60709_C217 0.00818
MSH6 C615 (UniProt P52701) 0.227
HK2 C794 (UniProt P52789) 0.184
CASP6 C68 (UniProt P55212) 0.258
KPNA1 C337 (UniProt P52294) 0.112
MSH6 C1165 (UniProt P52701) 0.0384
HK2 C628 (UniProt P52789) 0.275
UniProt P51812_C229 0.166
UniProt P62244_C30 0.14
POLG C647 (UniProt P54098) 0.0622
DSTN C23 (UniProt P60981) 0.302
HDGF C12 (UniProt P51858) 0.306
HADHB C435 (UniProt P55084) 0.126
UniProt P61077_C111 0.143
AGFG1 C89 (UniProt P52594) -0.0165
KPNA1 C210 (UniProt P52294) -0.0105
UniProt P60842_C134 0.0768
MSH6 C88 (UniProt P52701) 0.0172
UniProt P60891_C91 -0.116
ALDH18A1 C606 (UniProt P54886) 0.0633
TPI1 C124 (UniProt P60174) 0.086
UniProt P61088_C87 -0.0475
NUBP1 C31 (UniProt P53384) 0.598
VAMP7 C21 (UniProt P51809) 0.431
UniProt P61978_C132 0.189
SUCLG1 C172 (UniProt P53597) 0.3
ADAR C1224 (UniProt P55265) 0.158

Three entries picked at random from those above:
log2 ratio of iodoacetamide-alkyne labeling, inactive:
ALDH18A1 C606 (UniProt P54886) 0.0633
METAP1 C9 (UniProt P53582) 0.393
NUBP1 C31 (UniProt P53384) 0.598
